# Source: patent US20100203046A1
# Amino acid sequences for entries named in this document (tags omitted). Residues count along the entry.
# UniProt P06729, residues 25-351: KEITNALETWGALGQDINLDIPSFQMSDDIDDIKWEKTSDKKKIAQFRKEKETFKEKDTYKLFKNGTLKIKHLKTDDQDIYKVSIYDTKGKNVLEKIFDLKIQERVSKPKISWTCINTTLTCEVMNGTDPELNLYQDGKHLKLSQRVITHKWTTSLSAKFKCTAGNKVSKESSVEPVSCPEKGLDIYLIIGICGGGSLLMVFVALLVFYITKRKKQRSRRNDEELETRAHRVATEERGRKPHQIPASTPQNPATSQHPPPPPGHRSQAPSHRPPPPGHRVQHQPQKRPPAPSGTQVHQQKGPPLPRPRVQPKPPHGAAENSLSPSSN
# Results are given in words; binding and its absence hold for the method and conditions named. Some entries that bind do so weakly or less than the wild type.
# B1: CB6, human CD2-specific murine monoclonal antibody (IgG1, kappa) (antibody, V domains shown)
# VH: QVQLQQPGAELVRPGASVKLSCKASGYTFTSYWMNWVKQRPEQGLEWIGRIDPHDSETHYRQKFKDMAILTVDKSSRTAYMQLSSLTSEDSAVYYCARGTMLDGMDYWGQGTSVTVSSAS
# VL: QIVLTQSPAIMSASPGEKVTMTCRASSSVSHMHWYQQKSGTSPKRWIYDTSKLASGVPARFSGSGSGTSYSLTISSVEAEDAATYYCQQWSSNPLTFGAGTKLELK
# Biological target: human CD2 (human) (UniProt P06729)
# Experiment: hybridoma supernatants screened on CD2-positive Jurkat cells
binder,measurement,value
B1,binding,binds
